Test results: article PMC5351981

Sequences of proteins named here, by UniProt entry; tags and fusion partners are left off. A change or cut given only in a name is not applied to a line headed by its entry.
UniProt Q08605: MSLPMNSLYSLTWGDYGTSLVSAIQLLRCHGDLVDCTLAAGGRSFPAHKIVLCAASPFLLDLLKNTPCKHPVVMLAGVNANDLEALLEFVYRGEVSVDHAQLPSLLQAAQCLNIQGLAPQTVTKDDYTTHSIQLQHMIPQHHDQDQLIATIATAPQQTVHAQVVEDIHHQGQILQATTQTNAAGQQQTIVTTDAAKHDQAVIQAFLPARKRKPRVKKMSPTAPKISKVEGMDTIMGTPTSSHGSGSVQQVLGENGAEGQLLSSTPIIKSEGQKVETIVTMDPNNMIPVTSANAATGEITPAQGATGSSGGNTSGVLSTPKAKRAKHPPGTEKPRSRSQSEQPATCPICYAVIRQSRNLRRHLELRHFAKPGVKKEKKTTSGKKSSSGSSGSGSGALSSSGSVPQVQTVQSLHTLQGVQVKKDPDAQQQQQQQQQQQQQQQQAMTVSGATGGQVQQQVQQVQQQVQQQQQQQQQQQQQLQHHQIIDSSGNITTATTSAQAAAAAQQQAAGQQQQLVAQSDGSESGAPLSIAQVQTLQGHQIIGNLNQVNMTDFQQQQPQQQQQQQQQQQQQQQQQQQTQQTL
UniProt A1ZAS6: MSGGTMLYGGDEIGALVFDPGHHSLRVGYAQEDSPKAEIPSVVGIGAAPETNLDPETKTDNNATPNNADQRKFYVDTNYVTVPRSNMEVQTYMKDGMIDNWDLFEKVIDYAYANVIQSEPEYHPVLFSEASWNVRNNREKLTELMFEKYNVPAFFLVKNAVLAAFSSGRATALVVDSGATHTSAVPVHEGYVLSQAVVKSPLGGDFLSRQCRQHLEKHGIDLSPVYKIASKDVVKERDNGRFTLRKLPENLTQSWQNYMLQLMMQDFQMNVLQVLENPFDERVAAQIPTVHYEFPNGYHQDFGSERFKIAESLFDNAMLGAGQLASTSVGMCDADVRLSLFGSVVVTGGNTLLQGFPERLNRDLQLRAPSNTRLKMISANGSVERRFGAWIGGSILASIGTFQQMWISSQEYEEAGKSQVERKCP
UniProt Q24368: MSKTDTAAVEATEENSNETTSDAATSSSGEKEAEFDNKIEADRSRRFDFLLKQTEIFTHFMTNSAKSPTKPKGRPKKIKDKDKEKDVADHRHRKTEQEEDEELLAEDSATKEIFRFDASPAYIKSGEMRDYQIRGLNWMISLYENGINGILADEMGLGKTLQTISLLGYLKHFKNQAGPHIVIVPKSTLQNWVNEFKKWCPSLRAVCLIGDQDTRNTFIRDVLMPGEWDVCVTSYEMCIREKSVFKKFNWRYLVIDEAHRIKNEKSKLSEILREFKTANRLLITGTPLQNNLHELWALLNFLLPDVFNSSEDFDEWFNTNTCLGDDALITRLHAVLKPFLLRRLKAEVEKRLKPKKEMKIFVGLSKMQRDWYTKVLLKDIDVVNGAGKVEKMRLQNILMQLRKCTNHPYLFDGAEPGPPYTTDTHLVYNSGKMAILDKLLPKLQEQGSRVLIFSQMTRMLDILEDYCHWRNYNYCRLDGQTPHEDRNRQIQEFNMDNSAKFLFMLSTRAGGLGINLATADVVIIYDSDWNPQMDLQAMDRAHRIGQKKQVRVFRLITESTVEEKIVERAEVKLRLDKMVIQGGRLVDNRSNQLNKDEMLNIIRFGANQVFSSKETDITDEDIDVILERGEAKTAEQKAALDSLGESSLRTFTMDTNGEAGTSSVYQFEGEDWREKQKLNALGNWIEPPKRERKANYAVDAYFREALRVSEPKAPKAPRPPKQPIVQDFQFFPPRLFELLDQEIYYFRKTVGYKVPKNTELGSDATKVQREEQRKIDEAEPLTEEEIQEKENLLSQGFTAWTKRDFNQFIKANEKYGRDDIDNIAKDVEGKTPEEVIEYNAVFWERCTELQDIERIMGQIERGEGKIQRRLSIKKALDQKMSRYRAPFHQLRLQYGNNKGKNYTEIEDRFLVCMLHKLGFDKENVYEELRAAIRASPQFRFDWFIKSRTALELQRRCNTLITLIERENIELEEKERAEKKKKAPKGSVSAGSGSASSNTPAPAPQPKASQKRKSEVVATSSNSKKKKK

Key:
[1] = target: GAGA factor (GAF) (Drosophila melanogaster (endogenous in embryos)) (UniProt Q08605); test: co-IP; analytical IP from 100 ug nuclear extract with anti-GAF antibodies or agarose A (mock), with or without DNaseI; Western blotting
[2] = target: full-length GAF isoform PC 1-519 aa fused to the GAL4 DNA-binding domain (Drosophila); test: two-hybrid; yeast pJ69-4A; GAF or its fragments on the GAL4 DNA-binding domain (pGBT9), partners on the GAL4 activating domain (pGAD24); growth on -Trp -Leu -His with 1 or 5 mM 3-AT, or -Trp -Leu -His -Ade; scored +++, ++, +
[3] = target: GAGA factor (GAF) (Drosophila melanogaster (endogenous in embryos)) (UniProt Q08605); test: co-IP; analytical IP from 100 ug nuclear extract with anti-GAF antibodies or agarose A (mock), with or without DNaseI; Western blotting; remark: listed apart in the source
[4] = target: GAF 1-131 aa (BTB domain) fused to the GAL4 DNA-binding domain (Drosophila); test: two-hybrid; yeast pJ69-4A; GAF or its fragments on the GAL4 DNA-binding domain (pGBT9), partners on the GAL4 activating domain (pGAD24); growth on -Trp -Leu -His with 1 or 5 mM 3-AT, or -Trp -Leu -His -Ade; scored +++, ++, +
[5] = target: GAGA factor (GAF) (Drosophila melanogaster (endogenous in embryos)) (UniProt Q08605); test: native gel or EMSA; supershift of the LBC complex formed on the 32P-labelled GAGA4 DNA probe in 6-18 h embryonic nuclear extract (20 ug), antibodies added; 4% gel, 0.5 x TBE, 4 C

| binding [2] | Molecule | further results |
| --- | --- | --- |
| no binding | Pita (CG3941 PA) 1-681 aa fused to the GAL4 activating domain (protein, UniProt Q95RQ8 1-683) MAAKLEVREAMLTEKRVCRFCLTEQKLASIFEENPRVKTTANLPLQIMAITAIEVYAGDGMPGHICLECRLLFEHCYRFKQMCKRAETLLRQYPLTGNWPSPLEKPRAPMTMVASKKLLVVPAKTAEPSETPKKLLNTMAKSSSQVIIEDVQVLESAMVTPRTVAGSSPVPRRSHAYELKVDNNQELSMDDVQSMLEDMASELEKEFPDIPQKASPVKPKVLNKSSIRILNKGPAAPVEPRLATPKVKRDDSGNVAIVTEVLDSDLPLDDQDDPTKNAEKVATDVFPCPDCERSFPLQQLLEIHRLNHTRSRSFQCLLCEKSFFSKYDLAKHNFVHTGERPFKCAICSKAFTRKALLHRHERTHTDVPKFICVYCEKPFLSRQEMEKHAERHQKKRPFQCGVCTKSFAFKQGLERHETVHSTNLPFPCQHCERSFSTASKLARHLVAHAGKRAYPCKYCHKSYMLSHHLSRHLRTHTQTSDASFVCSECKVSYSNYNDLLDHALIHATASLKCPMCRKQIEDIDSVESHMDQHKQSERHACEFCDHIFLTQKCLQRHIEDDHVVEMEPYQNEFEDDGEGEGGVDEKEEHLDDFEDMDNVKQEEFVTEYLEDDALYEDHLDDSDESFTPPPPKQRKTNPPKDAQQSVRQTRSRDAQRITQKTGKNEGKPHHKLERNLKNRRSAK |  |
| no binding | Su(Hw) (CG8573 PA) 1-941 aa fused to the GAL4 activating domain (protein, UniProt P08970 1-941) MSASKEGKEKKGKLLGVENISPPKDKRPATRMKLLNDVGAGEDSEASTTTTTSRTPSNKQEKRGSVAGSRIKILNEEILGTPKTEKRGATKSTAPAASTVKILNEKKTPSATVTAVETTKIKTSPSKRKKMEHYVLQAVKSENTKADTTVTVVTEEDDTIDFILADDEEVVPGRIENNNGQEIVVTEDDEDLGEDGDEDGEDSSGKGNSSQTKIKEIVEHVCGKCYKTFRRVQSLKKHLEFCRYDSGYHLRKADMLKNLEKIEKDAVVMEKKDICFCCSESYDTFHLGHINCPDCPKSFKTQTSYERHIFITHSEFSDFPCSICNANLRSEALLALHEEQHKSRGKPYACKICGKDFTRSYHLKRHQKYSSCSSNETDTMSCKVCDRVFYRLDNLRSHLKQHLGTQVVKKPEYMCHTCKNCFYSLSTLNIHIRTHTGEKPFDCDLCDKKFSALVALKKHRRYHTGEKPYSCTVCNQAFAVKEVLNRHMKRHTGERPHKCDECGKSFIQATQLRTHSKTHIRPFPCEQCDEKFKTEKQLERHVKTHSRTKRPVFSCAECKRNFRTPALLKEHMDEGKHSPKQQRSSMRSAVKIMERTDCAICDKNFDSSDTLRRHIRTVHECDPDDIFGVEPHPSKRAKKDIESEEVVPVALNTSAGSLISSQTDGNGVVVREFLVDEGDGAAQTITLENETYTILPLDGAIEGEQLTDEAGVKPEAKKEEAQVSPVVKKEQRKSLAASLAAAIADNLEESCSEDDFSGEILTEEDIKLKENVGKLIDMLVDPPILKKYGWPNAPEETVLCKVIENCGHDLTKGGENYAELDYGSRMREYCKLLFTVVIHNDSIKSLLNNFPIDDVIEYVLGDEDQDEGGLDKDNESHSGDEEAVSVTGETKTNEIREKPEKKEVSAKSEKKEIVGKAVDKDNSEEVVRENKKKPVGEQEKA |  |
| binds | CG2199 PB 1-733 aa fused to the GAL4 activating domain (protein, UniProt Q8IRH5 1-733) MRNILLCENMTKVQKEVRCDHCGTSQGSKSVFSGQKVFLGRKITDVLETITHRSIPSSLPIKICFVCTSTFMSSAALIEKVRETVDRVQEQPAKKTKVAEIEEPSTQESDKKAVKVPKKNTTLRQRSKSIAAFPPSFVNGANTNTEIEIISASPKKLDKTPKKQISRLFEDNLNDSVKLTPAKEVSSTKKAFLNLFGNGGNDAIEVLTESEEEEDSDKGPITINTNNFQCPECEFHAKFPKPYKEHLQKEHGLQRPRIYPCTLCIKTFGVLKTLKNHLRDTHSRTFESEAKTKAKESKEKEAKSGAKNKIDAKAKETNAVSQRKKPKEKKSKEKKTEIKCNVETKVVDEIDDQVNNKKGTDSEDADQTQATKIASFKALNESLMKKRMLENVIDSEYTFAINGSSASTPRADSNNFQCEICDCELMTAKQMQEHMKTVHSIDKPKVFKCHVCEKSLATKQSLKTHMTLHADGAEAPNSSKRKILQDEDEDVDILGTTQIENTAEKVEGPKKSQQSPTKAAKFTNRKILQEEDEVVEIVDAFKTDNTAEDDEGPAEEKIIRSRNNIQHQVDGGMIAPRSPAKKTKKTSHVDLSVSTTNGNSPAKSEKRKKQDKSEDTLPSSDVDIVEEINYNVRPHKKARLESIGDSTADESTLSCDRCGKFVKSRQRLDSHMEKKHAAKLQCTLCKEVYQNQMDYVAHFSNCGSEGGLPCGVANCKKVFTEANFLSSHLRKRH | binding [4]: binds |
| no binding | Sry-delta (CG17958 PA) 1-433 aa fused to the GAL4 activating domain (protein, UniProt P07664 1-433) MDTCFFCGAVDLSDTGSSSSMRYETLSAKVPSSQKTVSLVLTHLANCIQTQLDLKPGARLCPRCFQELSDYDTIMVNLMTTQKRLTTQLKGALKSEFEVPESGEDILVEEVEIPQSDVETDADAEADALFVELVKDQEESDTEIKREFVDEEEEEDDDDDDEFICEDVDVGDSEALYGKSSDGEDRPTKKRVKQECTTCGKVYNSWYQLQKHISEEHSKQPNHICPICGVIRRDEEYLELHMNLHEGKTEKQCRYCPKSFSRPVNTLRHMRMHWDKKKYQCEKCGLRFSQDNLLYNHRLRHEAEENPIICSICNVSFKSRKTFNHHTLIHKENRPRHYCSVCPKSFTERYTLKMHMKTHEGDVVYGVREEAPADEQQVVEELHVDVDESEAAVTVIMSDNDENSGFCLICNTNFENKKELEHHLQFDHDVVLK |  |
| binds | Lola (CG12052) PA 1-120 aa fused to the GAL4 activating domain (domain or fragment, UniProt P42283 1-120) MDDDQQFCLRWNNHQSTLISVFDTLLENETLVDCTLAAEGKFLKAHKVVLSACSPYFATLLQEQYDKHPIFILKDVKYQELRAMMDYMYRGEVNISQDQLAALLKAAESLQIKGLSDNRT | binding [4]: binds |

More lines, now with the values behind:

| Molecule | binding [2] | further results |
| --- | --- | --- |
| Bap55 (from UniProt A1ZAS6) |  | binding [1]: binds |
| Iswi (from UniProt Q24368 1-1027) |  | binding [1]: binds |
| Adf1 (protein, UniProt P05552 1-262) MHTLTAAIEMDKLDANLEQQFDLNLIEAVKLNPVIYDRSHYNYKHFVRKAQTWKQIAETLGVPEQKCTKRWKSLRDKFAREMKLCQESRWRYFKQMQFLVDSIRQYRESLLGKCANGSQSANQVADPSQQQQAQQQTVVDIFAQPFNGSATTSAQALTHPHEITVTSDAQLATAVGKDQKPYFYEPPLKRERSEEEHSDNMLNTIKIFQNNVSQAVSAEDQSFGMVVTDMLNTLGVRQKAEAKVHIIKYLTDMQLLAQHNKY |  | binding [3]: binds |
| Batman (Lolal, CG5738 PA) 1-127 aa fused to the GAL4 activating domain (protein, UniProt Q7KRI2 1-127) MMSSDQQFFLKWNDFQTNMVTSFRHLRDEKSFTDVTLACEGQTCKAHKMVLSACSPYFKALLEENPSKHPIIILKDVSYIHLQAILEFMYAGEVNVSQEQLPAFLKTADRLKVKGLAETPSSIKREG | binds |  |
| Bab2 (CG9102) PA 194-313 aa fused to the GAL4 activating domain (domain or fragment, UniProt Q9W0K4 194-313) EGQQFCLRWNNYQSNLTNVFDELLQSESFVDVTLSCEGHSIKAHKMVLSACSPYFQALFYDNPCQHPIIIMRDVSWSDLKALVEFMYKGEINVCQDQINPLLKVAETLKIRGLAEVSAGR | binds | binding [4]: binds |
| E(y)2/ENY2 (protein, UniProt Q9VYX1 1-101) MSTSGAVDQYTVLTGDRSKIKDLLCSRLTECGWRDEVRLMCRNILMEKGTNNSFTVEQLIAEVTPKARTLVPDAVKKELLMKIRTILTEIEEEPDEPEDES |  | binding [5]: binds |

These are yes or no findings as the source states them, for the method shown. Binding can be weak; no strength is given. For some assays here: Where a sequence is shown, tags or fusion partners need not be part of it. For some assays here: Binding seen in cells or lysates may run through a third protein.
